Test results as given in the supplement of paper PMC10849652.
This is one part of the list. Residues, ends and D or L forms follow the SMILES beside them. *: point of attachment. Cbz = O=C(OCc1ccccc1)*

The chains behind the UniProt entries cited, without tags or fusion partners. Where a name states a change or a piece, a line headed by the entry shows the natural chain unless it says otherwise.
UniProt Q6IAN0: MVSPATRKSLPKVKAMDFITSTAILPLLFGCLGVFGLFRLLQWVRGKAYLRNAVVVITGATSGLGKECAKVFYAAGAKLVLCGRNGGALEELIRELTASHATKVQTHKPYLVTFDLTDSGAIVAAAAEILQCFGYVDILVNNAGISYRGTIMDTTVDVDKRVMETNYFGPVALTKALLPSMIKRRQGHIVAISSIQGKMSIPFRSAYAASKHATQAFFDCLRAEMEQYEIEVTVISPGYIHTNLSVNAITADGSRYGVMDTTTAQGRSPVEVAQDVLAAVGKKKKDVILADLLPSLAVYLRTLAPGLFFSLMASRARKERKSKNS
UniProt Q92466: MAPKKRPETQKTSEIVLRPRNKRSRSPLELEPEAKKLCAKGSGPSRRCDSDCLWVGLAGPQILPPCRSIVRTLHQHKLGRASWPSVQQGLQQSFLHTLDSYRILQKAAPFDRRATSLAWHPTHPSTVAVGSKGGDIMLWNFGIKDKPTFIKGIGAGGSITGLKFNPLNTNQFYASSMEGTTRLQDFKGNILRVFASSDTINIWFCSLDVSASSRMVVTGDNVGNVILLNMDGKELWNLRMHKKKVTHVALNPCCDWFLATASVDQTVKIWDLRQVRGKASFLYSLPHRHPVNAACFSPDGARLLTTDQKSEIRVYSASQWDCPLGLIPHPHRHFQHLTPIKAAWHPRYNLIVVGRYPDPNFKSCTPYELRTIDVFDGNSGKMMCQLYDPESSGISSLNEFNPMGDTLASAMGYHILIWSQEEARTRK
UniProt O60610, whole entry, looked up: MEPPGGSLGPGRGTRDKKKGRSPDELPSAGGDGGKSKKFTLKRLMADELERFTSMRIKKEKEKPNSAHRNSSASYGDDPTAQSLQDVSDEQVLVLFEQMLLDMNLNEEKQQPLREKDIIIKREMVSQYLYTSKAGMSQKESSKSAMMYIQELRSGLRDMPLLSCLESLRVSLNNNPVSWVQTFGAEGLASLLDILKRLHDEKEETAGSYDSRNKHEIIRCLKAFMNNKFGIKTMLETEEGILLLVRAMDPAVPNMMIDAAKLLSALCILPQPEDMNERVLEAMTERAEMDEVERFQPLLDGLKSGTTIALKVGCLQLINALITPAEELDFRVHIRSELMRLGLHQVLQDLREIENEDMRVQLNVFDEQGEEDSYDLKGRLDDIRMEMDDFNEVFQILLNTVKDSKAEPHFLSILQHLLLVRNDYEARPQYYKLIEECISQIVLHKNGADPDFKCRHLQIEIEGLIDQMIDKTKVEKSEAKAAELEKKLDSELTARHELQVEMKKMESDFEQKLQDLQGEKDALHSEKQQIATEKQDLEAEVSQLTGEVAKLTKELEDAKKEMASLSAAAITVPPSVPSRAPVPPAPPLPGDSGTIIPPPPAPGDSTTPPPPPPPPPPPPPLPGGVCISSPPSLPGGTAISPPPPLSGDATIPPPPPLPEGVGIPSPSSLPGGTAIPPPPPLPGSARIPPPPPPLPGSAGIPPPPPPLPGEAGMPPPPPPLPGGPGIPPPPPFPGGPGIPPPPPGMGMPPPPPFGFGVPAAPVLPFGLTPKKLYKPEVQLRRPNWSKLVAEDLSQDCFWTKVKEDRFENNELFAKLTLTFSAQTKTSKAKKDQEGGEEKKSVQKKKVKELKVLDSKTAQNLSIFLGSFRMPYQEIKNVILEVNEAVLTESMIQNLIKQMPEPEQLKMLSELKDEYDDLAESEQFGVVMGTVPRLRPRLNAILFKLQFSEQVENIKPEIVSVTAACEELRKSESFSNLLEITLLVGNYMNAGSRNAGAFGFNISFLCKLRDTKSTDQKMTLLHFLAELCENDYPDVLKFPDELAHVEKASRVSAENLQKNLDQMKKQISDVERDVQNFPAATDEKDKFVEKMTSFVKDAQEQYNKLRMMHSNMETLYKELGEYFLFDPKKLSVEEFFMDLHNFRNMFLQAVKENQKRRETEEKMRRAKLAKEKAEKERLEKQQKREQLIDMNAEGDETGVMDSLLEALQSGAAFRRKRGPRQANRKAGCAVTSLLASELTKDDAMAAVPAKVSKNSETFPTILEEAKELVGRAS
UniProt O94760: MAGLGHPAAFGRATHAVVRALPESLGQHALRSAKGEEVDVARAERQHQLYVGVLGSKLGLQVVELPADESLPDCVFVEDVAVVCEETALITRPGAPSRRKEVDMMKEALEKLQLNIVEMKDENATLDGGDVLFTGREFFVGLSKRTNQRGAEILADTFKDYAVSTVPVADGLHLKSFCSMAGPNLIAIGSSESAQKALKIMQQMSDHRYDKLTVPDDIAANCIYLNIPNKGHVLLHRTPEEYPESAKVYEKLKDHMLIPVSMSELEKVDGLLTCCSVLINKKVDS
UniProt Q7L014: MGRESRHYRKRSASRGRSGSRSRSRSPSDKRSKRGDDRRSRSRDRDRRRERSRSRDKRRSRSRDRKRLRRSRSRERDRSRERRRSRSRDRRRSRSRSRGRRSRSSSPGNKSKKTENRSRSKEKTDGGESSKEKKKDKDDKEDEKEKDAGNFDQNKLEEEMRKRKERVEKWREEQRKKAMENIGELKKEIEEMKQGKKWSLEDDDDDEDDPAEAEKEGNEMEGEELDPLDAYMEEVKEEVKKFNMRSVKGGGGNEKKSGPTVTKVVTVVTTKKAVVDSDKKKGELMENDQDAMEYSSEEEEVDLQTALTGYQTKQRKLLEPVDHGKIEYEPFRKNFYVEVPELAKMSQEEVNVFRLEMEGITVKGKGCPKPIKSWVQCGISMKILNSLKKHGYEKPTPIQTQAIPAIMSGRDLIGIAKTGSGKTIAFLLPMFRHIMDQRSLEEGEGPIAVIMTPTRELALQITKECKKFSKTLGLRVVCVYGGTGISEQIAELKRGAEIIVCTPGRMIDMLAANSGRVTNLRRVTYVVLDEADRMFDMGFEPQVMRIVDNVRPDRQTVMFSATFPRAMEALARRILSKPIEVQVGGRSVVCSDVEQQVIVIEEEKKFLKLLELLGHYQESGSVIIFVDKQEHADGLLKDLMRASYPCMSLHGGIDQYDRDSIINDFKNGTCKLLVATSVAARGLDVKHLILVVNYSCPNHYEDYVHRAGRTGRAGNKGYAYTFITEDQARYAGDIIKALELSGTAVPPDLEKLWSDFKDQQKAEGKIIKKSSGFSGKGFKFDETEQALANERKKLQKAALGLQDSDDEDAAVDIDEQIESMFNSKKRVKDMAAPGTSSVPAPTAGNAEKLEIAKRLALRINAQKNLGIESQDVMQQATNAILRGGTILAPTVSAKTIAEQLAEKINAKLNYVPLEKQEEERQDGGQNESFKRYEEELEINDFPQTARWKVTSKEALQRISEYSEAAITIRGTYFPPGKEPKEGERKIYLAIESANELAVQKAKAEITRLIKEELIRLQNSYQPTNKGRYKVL
UniProt O75911: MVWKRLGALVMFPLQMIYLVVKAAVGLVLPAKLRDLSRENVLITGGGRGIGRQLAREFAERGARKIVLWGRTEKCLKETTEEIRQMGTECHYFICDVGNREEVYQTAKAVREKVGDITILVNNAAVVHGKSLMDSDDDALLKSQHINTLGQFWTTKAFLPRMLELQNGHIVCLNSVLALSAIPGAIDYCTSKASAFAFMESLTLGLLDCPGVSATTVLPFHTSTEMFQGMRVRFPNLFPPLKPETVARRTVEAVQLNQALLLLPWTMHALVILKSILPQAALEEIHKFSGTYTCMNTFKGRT
UniProt Q8NDZ4: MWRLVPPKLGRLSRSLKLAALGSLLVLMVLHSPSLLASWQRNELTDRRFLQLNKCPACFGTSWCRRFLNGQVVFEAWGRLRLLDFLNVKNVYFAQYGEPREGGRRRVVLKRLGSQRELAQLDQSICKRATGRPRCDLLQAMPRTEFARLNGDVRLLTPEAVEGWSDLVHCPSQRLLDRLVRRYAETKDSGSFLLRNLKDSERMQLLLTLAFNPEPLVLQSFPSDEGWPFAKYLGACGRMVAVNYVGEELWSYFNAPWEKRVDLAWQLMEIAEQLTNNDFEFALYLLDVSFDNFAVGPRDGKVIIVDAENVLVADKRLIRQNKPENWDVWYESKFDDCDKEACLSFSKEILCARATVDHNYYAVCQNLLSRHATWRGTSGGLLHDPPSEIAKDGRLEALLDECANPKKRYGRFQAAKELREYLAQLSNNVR
UniProt P17844: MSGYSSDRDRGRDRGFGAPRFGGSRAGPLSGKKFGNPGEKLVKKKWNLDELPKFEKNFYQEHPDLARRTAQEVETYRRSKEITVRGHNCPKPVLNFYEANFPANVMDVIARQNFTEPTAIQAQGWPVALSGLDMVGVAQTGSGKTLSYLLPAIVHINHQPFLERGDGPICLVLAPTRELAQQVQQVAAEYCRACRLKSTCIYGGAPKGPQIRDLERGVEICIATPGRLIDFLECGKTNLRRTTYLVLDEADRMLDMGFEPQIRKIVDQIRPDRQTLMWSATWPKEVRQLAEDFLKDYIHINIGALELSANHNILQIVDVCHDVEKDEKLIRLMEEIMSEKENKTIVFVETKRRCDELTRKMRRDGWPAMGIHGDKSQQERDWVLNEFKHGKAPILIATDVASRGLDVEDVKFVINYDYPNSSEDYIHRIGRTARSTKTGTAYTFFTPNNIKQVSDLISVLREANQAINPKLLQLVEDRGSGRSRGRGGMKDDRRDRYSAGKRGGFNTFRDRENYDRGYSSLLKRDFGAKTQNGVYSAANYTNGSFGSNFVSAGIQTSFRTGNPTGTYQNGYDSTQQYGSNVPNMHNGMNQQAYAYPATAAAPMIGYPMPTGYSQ
UniProt Q14689: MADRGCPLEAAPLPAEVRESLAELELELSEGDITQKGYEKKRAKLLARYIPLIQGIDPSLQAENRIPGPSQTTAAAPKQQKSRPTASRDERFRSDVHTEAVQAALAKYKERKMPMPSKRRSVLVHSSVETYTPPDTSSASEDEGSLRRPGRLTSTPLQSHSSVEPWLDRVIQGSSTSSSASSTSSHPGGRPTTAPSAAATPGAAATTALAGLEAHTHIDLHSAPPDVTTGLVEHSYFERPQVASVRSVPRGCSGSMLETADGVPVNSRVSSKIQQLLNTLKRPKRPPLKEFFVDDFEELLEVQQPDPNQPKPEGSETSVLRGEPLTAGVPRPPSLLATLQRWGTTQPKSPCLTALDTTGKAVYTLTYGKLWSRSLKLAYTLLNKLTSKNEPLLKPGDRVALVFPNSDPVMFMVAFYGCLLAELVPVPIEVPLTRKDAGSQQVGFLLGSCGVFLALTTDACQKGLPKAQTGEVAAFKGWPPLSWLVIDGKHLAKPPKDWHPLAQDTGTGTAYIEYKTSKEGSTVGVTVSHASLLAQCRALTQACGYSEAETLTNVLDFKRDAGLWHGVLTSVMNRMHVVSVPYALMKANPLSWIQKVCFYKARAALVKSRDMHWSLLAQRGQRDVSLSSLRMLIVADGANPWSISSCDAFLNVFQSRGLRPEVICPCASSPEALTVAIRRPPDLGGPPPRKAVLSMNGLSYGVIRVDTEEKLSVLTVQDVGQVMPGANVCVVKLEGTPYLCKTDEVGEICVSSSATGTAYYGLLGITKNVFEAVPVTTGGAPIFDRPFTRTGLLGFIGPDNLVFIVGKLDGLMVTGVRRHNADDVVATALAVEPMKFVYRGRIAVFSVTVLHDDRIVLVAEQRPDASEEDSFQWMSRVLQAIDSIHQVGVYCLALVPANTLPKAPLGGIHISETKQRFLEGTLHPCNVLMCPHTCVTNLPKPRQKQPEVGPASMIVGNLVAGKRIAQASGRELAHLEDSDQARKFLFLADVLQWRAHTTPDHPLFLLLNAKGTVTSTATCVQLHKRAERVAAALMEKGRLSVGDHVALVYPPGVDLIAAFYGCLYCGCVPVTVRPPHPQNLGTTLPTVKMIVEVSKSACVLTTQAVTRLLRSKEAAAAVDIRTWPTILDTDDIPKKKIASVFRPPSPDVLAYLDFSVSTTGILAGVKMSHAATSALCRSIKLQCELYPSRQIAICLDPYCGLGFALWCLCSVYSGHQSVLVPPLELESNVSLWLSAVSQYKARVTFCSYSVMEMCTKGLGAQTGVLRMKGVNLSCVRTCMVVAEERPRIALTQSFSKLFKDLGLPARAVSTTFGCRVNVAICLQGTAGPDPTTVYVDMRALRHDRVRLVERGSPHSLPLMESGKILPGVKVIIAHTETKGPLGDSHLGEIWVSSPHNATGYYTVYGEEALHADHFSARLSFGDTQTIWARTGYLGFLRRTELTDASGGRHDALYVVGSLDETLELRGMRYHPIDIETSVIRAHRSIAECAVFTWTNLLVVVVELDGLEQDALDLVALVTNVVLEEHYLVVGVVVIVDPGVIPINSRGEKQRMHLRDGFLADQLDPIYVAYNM

Assays:
Assay in all cases: log2 fold change, soluble protein after heating vs DMSO (PISA); higher = thermal stabilisation; K562 cells, 10 uM, 30 min; active = over 0.2 and 3.5 SD of the protein, either way, in both replicates (recomputed)
[1] = compound: C#Cc1cccc(Nc2ncnc3cc(OCCOC)c(OCCOC)cc23)c1 [erlotinib]
In short: (§1)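 For each measurement, 10 μM compound was applied for 30 min to K562 cells at 2×10^6 cells/mL. Aliquots were heated for 3 min across 48°C-58°C, pooled, and extracted in PBS with 0.5% NP-40 at 4°C; the supernatant after 21,000xg for 90 min was soluble protein. This was quantified by TMTpro 16plex LC-MS/MS with channel sums equalised, and thermal stability was reported relative to control samples from duplicates, on a log2 fold-change scale.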

[2] = compound: C/C(=N\NC(=O)C1=CC(=CC=C1)S(=O)(=O)N2CCOCC2)/C3=C(C=CC(=C3)Cl)O
In short: as §1

[3] = compound: C1=CC(=C(C=C1Cl)C2=NC3=NC=CN=C3C(=N2)NC4=CC=NC=C4)F
In short: as §1

[4] = compound: C1=CC(=CC=C1C2=NC3=C(N2)C=C(C=C3)C(=O)N)OC4=CC=C(C=C4)Cl
In short: as §1

[5] = compound: C1=CC2=C(C=CC(=C2)/C=C\3/C(=O)NC(=NCC4=CC=CS4)S3)N=C1
In short: as §1

[6] = compound: C1=CC2=NC=CN=C2C=C1/C=C/3\C(=O)NC(=O)S3
In short: as §1

[7] = compound: C1=CC=C(C=C1)C2=NC(=C(N2)C3=CC=NC=C3)C4=CC(=C(C=C4)Cl)O
In short: as §1

[8] = compound: C1=CC=C2C(=C1)C3=NNC4=CC=CC(=C43)C2=O
In short: as §1

[9] = compound: C1CCN(C1)C(=O)NC2=CC=CC(=C2)NC3=NC=C(C(=N3)NCCC4=CN=CN4)Br
In short: as §1

[10] = compound: C1CN(CCC1(CC2=CC=C(C=C2)Cl)N)C3=NC=NC4=C3C=CN4
In short: as §1

[11] = compound: C1COCCN1CCN2C3=CC=CC=C3N=C2NC(=O)C4=CC(=CC=C4)[N+](=O)[O-] [IRAK-1-4 Inhibitor I]
In short: as §1

[12] = compound: C=CC(=O)N1CCC[C@@H](n2nc(-c3ccc(Oc4ccccc4)cc3)c3c(N)ncnc32)C1 [ibrutinib]
In short: as §1

[13] = compound: CC(=O)c1cnc2ccc(-c3cc(Cl)c(O)c(Cl)c3)nc2c1N[C@H]1CC[C@H](CN(C)C)CC1
In short: as §1

[14] = compound: CC(C)(C)Cn1c(N)nc2ccc(-c3[nH]c(C(C)(C)C)nc3-c3ccc(F)cc3)nc21 [ralimetinib]
In short: as §1

[15] = compound: CC(C)(O)CC(=O)NCCn1ccc2ncnc(Nc3ccc(Oc4cccc(C(F)(F)F)c4)c(Cl)c3)c21
In short: as §1

[16] = compound: CC(C)C1=C2N=C(C=C(N2N=C1)NCC3=CC=CC=C3)NCCCCCCN
In short: as §1

[17] = compound: CC(C)C[C@@H](C=O)NC(=O)[C@H](CC(C)C)NC(=O)[C@H](CC(C)C)NC(=O)OCc1ccccc1
In short: as §1

[18] = compound: CC(C)N(C[C@H]1O[C@@H](n2cnc3c(N)ncnc32)[C@H](O)[C@@H]1O)[C@H]1C[C@@H](CCc2nc3cc(C(C)(C)C)ccc3[nH]2)C1 [pinometostat]
In short: as §1

[19] = compound: CC1=C(C2=C(C=C1)C(=O)C3=CC=CC=C3N2CCCN)C
In short: as §1

[20] = compound: CC1=C(C(CC(=O)N1)C2=CC=C(C=C2)C(F)(F)F)C(=O)NC3=C(C=C4C(=C3)C=NN4)F
In short: as §1

Target | log2 fold change [1] | log2 fold change [2] | log2 fold change [3] | log2 fold change [4] | log2 fold change [5] | log2 fold change [6] | log2 fold change [7] | log2 fold change [8] | log2 fold change [9] | log2 fold change [10] | log2 fold change [11] | log2 fold change [12] | log2 fold change [13] | log2 fold change [14] | log2 fold change [15] | log2 fold change [16] | log2 fold change [17] | log2 fold change [18] | log2 fold change [19] | log2 fold change [20]
DHRS7B (UniProt Q6IAN0) | inactive: -0.039 | inactive: 0.07 | inactive: 0.011 | inactive: 0.009 | inactive: 0.027 | inactive: 0.012 | inactive: 0.144 | inactive: 0.034 | inactive: -0.037 | inactive: 0.058 | inactive: 0.027 | inactive: -0.017 | inactive: -0.063 | inactive: 0.23 | inactive: 0.055 | inactive: 0.115 | inactive: -0.113 | inactive: -0.055 | inactive: -0.003 | 
DDB2 (UniProt Q92466) | inactive: 0.037 | inactive: 0.082 | inactive: 0.036 | inactive: -0.027 | inactive: 0 | inactive: -0.149 | inactive: 0.011 | inactive: -0.027 | inactive: -0.102 | inactive: 0.154 |  | inactive: 0.186 | inactive: -0.044 | inactive: -0.039 | inactive: 0.084 | inactive: 0.145 | inactive: 0.111 |  | inactive: 0.112 | inactive: 0.068
DIAPH1 (UniProt O60610) | inactive: 0.072 | inactive: 0.058 | inactive: -0.109 | inactive: -0.037 | inactive: 0.031 | inactive: 0.04 | inactive: 0.067 | inactive: 0.006 | inactive: -0.072 | inactive: -0.235 | inactive: -0.128 | inactive: -0.061 | inactive: 0.072 | inactive: 0.168 | inactive: 0 | active: -0.373 | inactive: 0.07 | inactive: 0.213 | inactive: -0.08 | 
DDAH1 (UniProt O94760) | inactive: 0.098 | inactive: 0.054 |  | inactive: 0.027 | inactive: 0.085 | inactive: -0.13 |  | inactive: -0.016 | inactive: 0.006 | inactive: -0.193 |  | inactive: -0.062 | inactive: 0.03 |  |  | inactive: 0.05 |  |  | inactive: 0.096 | inactive: -0.019
DDX41 (UniProt Q9UJV9) | inactive: 0.045 | inactive: -0.15 | inactive: -0.024 | inactive: -0.044 | inactive: -0.157 | inactive: 0.002 | inactive: -0.137 | inactive: 0.063 | inactive: -0.098 | inactive: -0.165 |  | inactive: 0.057 | inactive: -0.097 | inactive: -0.159 | inactive: -0.036 | inactive: -0.023 | inactive: 0.06 |  | inactive: -0.051 | inactive: 0.039
DDX46 (UniProt Q7L014) | inactive: 0.053 | inactive: 0.23 | inactive: 0.134 | inactive: 0.081 | inactive: 0.034 | inactive: 0 | inactive: -0.023 | inactive: -0.022 | inactive: -0.062 | inactive: -0.141 | inactive: -0.113 | inactive: -0.034 | inactive: -0.299 | inactive: -0.095 | inactive: -0.18 | inactive: -0.034 | inactive: 0.026 | inactive: -0.066 | inactive: 0.152 | 
DHRS3 (UniProt O75911) | inactive: 0.116 | inactive: 0.041 | inactive: 0.11 | inactive: 0.018 | inactive: 0.155 | inactive: -0.037 | inactive: 0.024 | inactive: 0.074 | inactive: 0.005 | inactive: 0.191 | inactive: 0 | inactive: 0.027 | inactive: -0.083 | inactive: 0.001 | inactive: 0.143 | inactive: 0.018 | inactive: -0.017 | inactive: -0.056 | inactive: 0.03 | 
DIPK2A (UniProt Q8NDZ4) | inactive: -0.052 | inactive: 0.148 |  | inactive: -0.017 | inactive: -0.026 | inactive: 0.064 | inactive: -0.024 | inactive: -0.027 | inactive: -0.04 | inactive: -0.166 | inactive: 0.072 | inactive: -0.161 | inactive: -0.066 | inactive: 0.014 |  | inactive: -0.02 | inactive: -0.016 | inactive: 0.002 | inactive: -0.129 | inactive: 0.25
DDX5 (UniProt P17844) | inactive: 0.13 | inactive: 0.101 | inactive: 0.072 | inactive: 0 | inactive: -0.003 | inactive: -0.046 | inactive: 0.059 | inactive: -0.032 | inactive: -0.061 | inactive: -0.127 | inactive: -0.114 | inactive: 0.002 | active: -0.358 | inactive: -0.024 | inactive: -0.189 | inactive: -0.12 | inactive: 0.069 | inactive: 0.017 | inactive: 0.072 | 
DIP2A (UniProt Q14689) | inactive: -0.002 | inactive: 0.07 | inactive: 0.055 | inactive: 0.103 | inactive: -0.145 | inactive: 0.076 | inactive: 0.037 | inactive: 0.043 | inactive: 0.03 | inactive: 0.053 | inactive: -0.036 | inactive: 0.053 | inactive: -0.06 | inactive: 0.102 | inactive: 0.003 | inactive: -0.023 | inactive: 0.118 | inactive: 0.064 | inactive: 0.018 | 
